{
  "source": "PubChem BioAssay AID504467",
  "about": "(National Center for Advancing Translational Sciences (NCATS), 2011)",
  "note": "Among all 330,000 compounds or so, about 7,700 (2.3%) were called active. This list was built around the results that the source calls inconclusive (neither active nor inactive); the mix of calls is not that of the screen. The call rests on the fitted dose curve; in most records, active means well fitted inhibition curve with a large enough effect; inconclusive means small, poorly fitted or top-dose-only effect, or effect the other way; inactive means flat fitted curve, though single readings scatter. A potency beside an inconclusive call is a rough fit, not a confirmed value. Potency means the concentration at half of the fitted maximal effect.",
  "data": [
    {"assay": "qHTS screen for small molecules that inhibit ELG1-dependent DNA repair in human embryonic kidney (HEK293T) cells expressing luciferase-tagged ELG1; further: nearly all actives have a fitted effect of over 55% in size", "conditions": "HEK293T ELG1-luciferase reporter, luminescence, 16 h, DNA damage induced by 5-fluorouridine; series mostly up to 46.1 µM", "procedure,_shortened": "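Luminescence from the luciferase reporter, measured 30 min after ONE-Glo reagent at room temperature, was the read-out. Beforehand, 2,000 cells per well were exposed for 16 hr at 37 °C to 5-fluorouridine together with compound or vehicle.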", "values": [
      {"smiles": "CC(=O)c1ccc(-c2ccccc2OC(F)(F)F)o1", "Potency": "inconclusive: 6.51 µM [inhibitor, single point]"},
      {"smiles": "O=C(OC1CCOC1=O)c1cc(-c2cccs2)nc2ccccc12", "note": "(centres undefined)", "Potency": "inactive"},
      {"smiles": "COc1ccc(OC)c(CC(NC(C)=O)C(=O)NC2CCN(c3c(Cc4ccccc4)c(C)nc4ncnn34)CC2)c1", "note": "(centres undefined)", "Potency": "active: 23.1 µM"},
      {"smiles": "COc1ccccc1NC(=O)COc1ccc2c(c1)OCO2", "Potency": "inconclusive: 16.4 µM [activator, partial curve]"},
      {"smiles": "CCOC(=O)CSc1nc(C)c(C(C)=O)cc1C#N", "Potency": "inconclusive: 0.164 µM [activator, full curve, poor fit]"},
      {"smiles": "CCOc1cc(C(=O)NCc2ccc(-c3nc4ccccc4o3)cc2)cc(OCC)c1OCC", "Potency": "inconclusive: 20.6 µM [activator, partial curve, poor fit]"},
      {"smiles": "CCCc1cnc(N2CCN(C(=O)c3ccccc3)CC2)nc1", "Potency": "inconclusive: 29.1 µM [inhibitor, partial curve, poor fit]"},
      {"smiles": "CCOC(=O)CC(=O)CSc1nnc2c(n1)[nH]c1ccccc12", "Potency": "inconclusive: 8.2 µM [activator, partial curve]"},
      {"smiles": "CCN(CC(=O)Nc1ccc(NC(C)=O)cc1)C(=O)c1ccc(C(=O)c2ccccc2)cc1", "Potency": "inactive"},
      {"smiles": "O=C(CSc1nnc(-c2ccc(Cl)s2)o1)N1CCOCC1", "Potency": "inconclusive: 10.3 µM [activator, partial curve]"},
      {"smiles": "Cc1ccc(CC2C(=O)N(c3ccc(F)cc3)C(=O)C2C)cc1", "note": "(centres undefined)", "Potency": "inconclusive: 12.6 µM [activator, partial curve, poor fit]"},
      {"smiles": "CCCCc1c(O)nc(SCC(=O)c2ccccc2)n(-c2ccccc2OC)c1=O", "Potency": "inactive"},
      {"smiles": "Cc1ccc(OCC(=O)N2CC3(C)CC2CC(C)(C)C3)cc1", "note": "(centres undefined)", "Potency": "inactive"},
      {"smiles": "CCCCn1c(=O)c2c(nc3n2CCCN3Cc2ccccc2)n(C)c1=O", "Potency": "inactive"},
      {"smiles": "CCOC(=O)c1cnc(-n2nc(C)cc2C)nc1Nc1ccc2c(c1)OCO2", "Potency": "inconclusive: 6.51 µM [inhibitor, single point]"},
      {"smiles": "COc1ccc(O)c(-c2c(-c3ccc(Cl)cc3)n[nH]c2C)c1", "Potency": "inconclusive: 20.6 µM [inhibitor, single point]"},
      {"smiles": "COc1ccc(/C=C2\\SC(=O)N(CCNC(=O)Cc3coc4cc(OC)ccc34)C2=O)cc1", "Potency": "inconclusive: 29.1 µM [inhibitor, single point]"},
      {"smiles": "COc1ccc(/C=C/C(=O)Nc2cccc(S(=O)(=O)NC3=NCCCCC3)c2)cc1", "Potency": "inconclusive: 1.64 µM [activator, full curve]"},
      {"smiles": "COc1cc(C(=O)NCc2cc3ccccc3n2C)cc(OC)c1OC", "Potency": "inactive"}
    ]}
  ]
}
